In patent publication US11629171B2 (POLYPHOR AG, priority 2017, dated 2023):
Strings that start with PEPTIDE1 are HELM notation: dots part the residues, brackets hold end groups and non-standard residues.

test: general procedure: Fmoc solid-phase peptide synthesis; 2-chlorotrityl resin (polystyrene crosslinked with 1-5% divinylbenzene); details: whole synthesis, HPLC-MS

Substance	final HPLC purity [%]
PEPTIDE1{V.C.Y.[Dab].E.[D-Dab].T.W.S.[tBuGly].C.S.[am]}|PEPTIDE2{[Dab].T.[Dab].[Dab].[Dab].[dL].L.[Dab].[Dab].T}$PEPTIDE1,PEPTIDE1,2:R3-11:R3|PEPTIDE1,PEPTIDE2,5:R3-1:R1|PEPTIDE2,PEPTIDE2,4:R3-10:R2$$$V2.0	95
PEPTIDE1{V.C.Y.[Dab].E.[D-Dab].T.W.S.[tBuGly].C.S}|PEPTIDE2{[Dab].T.[Dab].[Dab].[Dab].[dL].L.[Dab].[Dab].T}$PEPTIDE1,PEPTIDE1,2:R3-11:R3|PEPTIDE1,PEPTIDE2,5:R3-1:R1|PEPTIDE2,PEPTIDE2,4:R3-10:R2$$$V2.0	92
PEPTIDE1{V.C.Y.[Dab].E.[D-Dab].[Hse].W.[Hse].V.C.S.[am]}|PEPTIDE2{[Dab].T.[Dab].[Dab].[Dab].[dL].L.[Dab].[Dab].T}$PEPTIDE1,PEPTIDE1,2:R3-11:R3|PEPTIDE1,PEPTIDE2,5:R3-1:R1|PEPTIDE2,PEPTIDE2,4:R3-10:R2$$$V2.0	94
PEPTIDE1{V.D.Y.[Dab].E.[D-Dab].T.W.S.[tBuGly].[Dab].S}|PEPTIDE2{[Dab].T.[Dab].[Dab].[Dab].[dL].L.[Dab].[Dab].T}$PEPTIDE1,PEPTIDE1,2:R3-11:R3|PEPTIDE1,PEPTIDE2,5:R3-1:R1|PEPTIDE2,PEPTIDE2,4:R3-10:R2$$$V2.0	93
PEPTIDE1{V.E.Y.[Dab].E.[D-Dab].T.W.S.[tBuGly].[Dab].S}|PEPTIDE2{[Dab].T.[Dab].[Dab].[Dab].[dL].L.[Dab].[Dab].T}$PEPTIDE1,PEPTIDE1,2:R3-11:R3|PEPTIDE1,PEPTIDE2,5:R3-1:R1|PEPTIDE2,PEPTIDE2,4:R3-10:R2$$$V2.0	83
PEPTIDE1{V.[Pen].Y.[Dab].E.[D-Dab].T.W.S.[tBuGly].C.S}|PEPTIDE2{[Dab].T.[Dab].[Dab].[Dab].[dL].L.[Dab].[Dab].T}$PEPTIDE1,PEPTIDE1,2:R3-11:R3|PEPTIDE1,PEPTIDE2,5:R3-1:R1|PEPTIDE2,PEPTIDE2,4:R3-10:R2$$$V2.0	91
PEPTIDE1{[3MeButA].C.Y.[Dap].E.[D-Dab].T.W.S.[tBuGly].C.[Glyol]}|PEPTIDE2{[Dab].T.[Dab].[Dab].[Dab].[dL].L.[Dab].[Dab].T}$PEPTIDE1,PEPTIDE1,2:R3-11:R3|PEPTIDE1,PEPTIDE2,5:R3-1:R1|PEPTIDE2,PEPTIDE2,4:R3-10:R2$$$V2.0	87
PEPTIDE1{[3MeButA].C.Y.[Dap].E.[D-Dab].T.W.S.[tBuGly].C.[Serol]}|PEPTIDE2{[Dab].T.[Dab].[Dab].[Dab].[dL].L.[Dab].[Dab].T}$PEPTIDE1,PEPTIDE1,2:R3-11:R3|PEPTIDE1,PEPTIDE2,5:R3-1:R1|PEPTIDE2,PEPTIDE2,4:R3-10:R2$$$V2.0	91
PEPTIDE1{[3MeButA].C.Y.[Dap].E.[D-Dab].T.W.S.[tBuGly].C.[Throl]}|PEPTIDE2{[Dab].T.[Dab].[Dab].[Dab].[dL].L.[Dab].[Dab].T}$PEPTIDE1,PEPTIDE1,2:R3-11:R3|PEPTIDE1,PEPTIDE2,5:R3-1:R1|PEPTIDE2,PEPTIDE2,4:R3-10:R2$$$V2.0	90
PEPTIDE1{[6MeHeptA].V.C.Y.[Dab].E.[D-Dab].[Hse].W.[Hse].V.C.S.[am]}|PEPTIDE2{[Dab].T.[Dab].[Dab].[Dab].[dL].L.[Dab].[Dab].T}$PEPTIDE1,PEPTIDE1,3:R3-12:R3|PEPTIDE1,PEPTIDE2,6:R3-1:R1|PEPTIDE2,PEPTIDE2,4:R3-10:R2$$$V2.0	92
PEPTIDE1{[HOVal].C.T.[Dab].E.[D-Dab].[Hse].W.S.[tBuGly].C.[Tyrol]}|PEPTIDE2{[Dab].T.[Dab].[Dab].[Dab].[dL].L.[Dab].[Dab].T}$PEPTIDE1,PEPTIDE1,2:R3-11:R3|PEPTIDE1,PEPTIDE2,5:R3-1:R1|PEPTIDE2,PEPTIDE2,4:R3-10:R2$$$V2.0	82
PEPTIDE1{[HOVal].C.V.[Dab].E.[D-Dab].[Hse].W.S.Y.C.[Serol]}|PEPTIDE2{[Dab].T.[Dab].[Dab].[Dab].[dL].L.[Dab].[Dab].T}$PEPTIDE1,PEPTIDE1,2:R3-11:R3|PEPTIDE1,PEPTIDE2,5:R3-1:R1|PEPTIDE2,PEPTIDE2,4:R3-10:R2$$$V2.0	82
PEPTIDE1{[HOVal].C.V.[Dab].E.[D-Dab].[Hse].W.S.Y.C.[Throl]}|PEPTIDE2{[Dab].T.[Dab].[Dab].[Dab].[dL].L.[Dab].[Dab].T}$PEPTIDE1,PEPTIDE1,2:R3-11:R3|PEPTIDE1,PEPTIDE2,5:R3-1:R1|PEPTIDE2,PEPTIDE2,4:R3-10:R2$$$V2.0	81
PEPTIDE1{[HOVal].C.V.[Dab].E.[D-Dab].[Hse].W.S.[tBuGly].C.[Tyrol]}|PEPTIDE2{[Dab].T.[Dab].[Dab].[Dab].[dL].L.[Dab].[Dab].T}$PEPTIDE1,PEPTIDE1,2:R3-11:R3|PEPTIDE1,PEPTIDE2,5:R3-1:R1|PEPTIDE2,PEPTIDE2,4:R3-10:R2$$$V2.0	95
PEPTIDE1{[HOVal].C.Y.E.E.[D-Dab].T.W.[Dap].[tBuGly].C.[Throl]}|PEPTIDE2{[Dab].T.[Dab].[Dab].[Dab].[dL].L.[Dab].[Dab].T}$PEPTIDE1,PEPTIDE1,2:R3-11:R3|PEPTIDE1,PEPTIDE2,5:R3-1:R1|PEPTIDE2,PEPTIDE2,4:R3-10:R2$$$V2.0	87
PEPTIDE1{[HOVal].C.Y.[Dab].E.[D-Dab].S.W.S.[tBuGly].C.[Throl]}|PEPTIDE2{[Dab].T.[Dab].[Dab].[Dab].[dL].L.[Dab].[Dab].T}$PEPTIDE1,PEPTIDE1,2:R3-11:R3|PEPTIDE1,PEPTIDE2,5:R3-1:R1|PEPTIDE2,PEPTIDE2,4:R3-10:R2$$$V2.0	82
PEPTIDE1{[HOVal].C.Y.[Dab].E.[D-Dab].T.W.[Hse].[tBuGly].C.[Throl]}|PEPTIDE2{[Dab].T.[Dab].[Dab].[Dab].[dL].L.[Dab].[Dab].T}$PEPTIDE1,PEPTIDE1,2:R3-11:R3|PEPTIDE1,PEPTIDE2,5:R3-1:R1|PEPTIDE2,PEPTIDE2,4:R3-10:R2$$$V2.0	84
PEPTIDE1{[HOVal].C.Y.[Dab].E.[D-Dab].[Hse].W.G.[tBuGly].C.[Throl]}|PEPTIDE2{[Dab].T.[Dab].[Dab].[Dab].[dL].L.[Dab].[Dab].T}$PEPTIDE1,PEPTIDE1,2:R3-11:R3|PEPTIDE1,PEPTIDE2,5:R3-1:R1|PEPTIDE2,PEPTIDE2,4:R3-10:R2$$$V2.0	84
PEPTIDE1{[HOVal].C.Y.[Dab].E.[D-Dab].[Hse].W.S.V.C.[Throl]}|PEPTIDE2{[Dab].T.[Dab].[Dab].[Dab].[dL].L.[Dab].[Dab].T}$PEPTIDE1,PEPTIDE1,2:R3-11:R3|PEPTIDE1,PEPTIDE2,5:R3-1:R1|PEPTIDE2,PEPTIDE2,4:R3-10:R2$$$V2.0	87
PEPTIDE1{[HOVal].C.Y.[Dab].E.[D-Dab].[Hse].W.S.[tBuGly].C.[Glyol]}|PEPTIDE2{[Dab].T.[Dab].[Dab].[Dab].[dL].L.[Dab].[Dab].T}$PEPTIDE1,PEPTIDE1,2:R3-11:R3|PEPTIDE1,PEPTIDE2,5:R3-1:R1|PEPTIDE2,PEPTIDE2,4:R3-10:R2$$$V2.0	80
PEPTIDE1{[HOVal].C.Y.[Dab].E.[D-Dab].[Hse].W.S.[tBuGly].C.[Serol]}|PEPTIDE2{[Dab].T.[Dab].[Dab].[Dab].[dL].L.[Dab].[Dab].T}$PEPTIDE1,PEPTIDE1,2:R3-11:R3|PEPTIDE1,PEPTIDE2,5:R3-1:R1|PEPTIDE2,PEPTIDE2,4:R3-10:R2$$$V2.0	88
PEPTIDE1{[HOVal].C.Y.[Dab].E.[D-Dab].[Hse].W.S.[tBuGly].C.[Throl]}|PEPTIDE2{[Dab].S.[Dab].[Dab].[Dab].[dL].L.[Dab].[Dab].T}$PEPTIDE1,PEPTIDE1,2:R3-11:R3|PEPTIDE1,PEPTIDE2,5:R3-1:R1|PEPTIDE2,PEPTIDE2,4:R3-10:R2$$$V2.0	84
PEPTIDE1{[HOVal].C.Y.[Dab].E.[D-Dab].[Hse].W.S.[tBuGly].C.[Throl]}|PEPTIDE2{[Dab].T.[Dab].[Dab].[Dab].[dF].L.[Dab].[Dab].T}$PEPTIDE1,PEPTIDE1,2:R3-11:R3|PEPTIDE1,PEPTIDE2,5:R3-1:R1|PEPTIDE2,PEPTIDE2,4:R3-10:R2$$$V2.0	81
PEPTIDE1{[HOVal].C.Y.[Dab].E.[D-Dab].[Hse].W.S.[tBuGly].C.[Throl]}|PEPTIDE2{[Dab].T.[Dab].[Dab].[Dab].[dL].L.[Dab].[Dab].T}$PEPTIDE1,PEPTIDE1,2:R3-11:R3|PEPTIDE1,PEPTIDE2,5:R3-1:R1|PEPTIDE2,PEPTIDE2,4:R3-10:R2$$$V2.0	80
PEPTIDE1{[HOVal].C.Y.[Dab].E.[D-Dab].[Hse].W.T.[tBuGly].C.[Throl]}|PEPTIDE2{[Dab].T.[Dab].[Dab].[Dab].[dL].L.[Dab].[Dab].T}$PEPTIDE1,PEPTIDE1,2:R3-11:R3|PEPTIDE1,PEPTIDE2,5:R3-1:R1|PEPTIDE2,PEPTIDE2,4:R3-10:R2$$$V2.0	90
PEPTIDE1{[HOVal].C.Y.[Dab].E.[D-Dab].[Hse].W.[Hse].[tBuGly].C.[Throl]}|PEPTIDE2{[Dab].T.[Dab].[Dab].[Dab].[dL].L.[Dab].[Dab].T}$PEPTIDE1,PEPTIDE1,2:R3-11:R3|PEPTIDE1,PEPTIDE2,5:R3-1:R1|PEPTIDE2,PEPTIDE2,4:R3-10:R2$$$V2.0	87
PEPTIDE1{[HOVal].C.Y.[Dab].E.[dR].[Hse].W.S.[tBuGly].C.[Throl]}|PEPTIDE2{[Dab].T.[Dab].[Dab].[Dab].[dL].L.[Dab].[Dab].T}$PEPTIDE1,PEPTIDE1,2:R3-11:R3|PEPTIDE1,PEPTIDE2,5:R3-1:R1|PEPTIDE2,PEPTIDE2,4:R3-10:R2$$$V2.0	79
PEPTIDE1{[HOVal].C.Y.[Dap].E.[D-Dab].T.W.E.[tBuGly].C.[Throl]}|PEPTIDE2{[Dab].T.[Dab].[Dab].[Dab].[dL].L.[Dab].[Dab].T}$PEPTIDE1,PEPTIDE1,2:R3-11:R3|PEPTIDE1,PEPTIDE2,5:R3-1:R1|PEPTIDE2,PEPTIDE2,4:R3-10:R2$$$V2.0	81
PEPTIDE1{[HOVal].C.Y.[Dap].E.[D-Dab].T.W.S.[tBuGly].C.[Throl]}|PEPTIDE2{[Dab].S.[Dab].[Dab].[Dab].[dL].L.[Dab].[Dab].T}$PEPTIDE1,PEPTIDE1,2:R3-11:R3|PEPTIDE1,PEPTIDE2,5:R3-1:R1|PEPTIDE2,PEPTIDE2,4:R3-10:R2$$$V2.0	95
